Consider 26 substances from patent US20120045393A1 (priority 2009, published 2012).

The data set can be described thus: general procedure: Fmoc solid-phase peptide synthesis; Fmoc-PAL-PEG-PS resin (0.2 mmol/g) preloaded with Fmoc-Pro-azaGly; Fmoc-Pro/Fmoc-Gly-NovaSyn-TGT resin (0.22 mmol/g); 2-; PyBop-DIEA; FastMoc protocol; DIC for bromoacetic acid. The conditions noted are these: whole synthesis.
[1] abbreviates: scale of the general procedure typically 50 mmol (as printed, 50-umol elsewhere) on Symphon.

As to “DO3A10CM-Dna12-Arg-Trp-Ser-His-Darg-Trp-Bpa4-Pro-Gly-Arg-NH2”, the isolated mass was found to be 24.2 mg. The isolated yield under setting [1] stood at 4.7%.
On to “DO3A10CM-Dna12-Arg-Trp-Ser-His-Darg-Trp-Bpa4-Pro-Gly-Abn”, for which the isolated mass came to 36.5 mg. Besides, under setting [1], the isolated yield was 23%.
For the substance “DO3A10CM-Dnal2-Arg-Trp-Ser-His-Darg-Trp-Bpa4-Pro-Az34 m3buo-NH2”, under “scale 0.25 mmol”, the isolated mass stood at 14.5 mg and the isolated yield worked out at 3%.
Consider “DO3A10CM-Dna12-Arg-Trp-Ser-His-Darg-Trp-Bpa4-Pro-Az23m2po-NH2”, for which the isolated mass came to 18.7 mg. Under setting [1], this substance came in with an isolated yield of 3.9%.
For “DO3A10CM-Dna12-Arg-Trp-Ser-His-Darg-Trp-Bpa4-Pro-Mo2abn” the same measures were 26.5 mg and 16.6%.
Consider “DO3A10CM-Dna12-Arg-Trp-Ser-His-Darg-Trp-Bpa4-Pro-Gly-Az23(py2)2po-Ap”, for which the isolated mass is on record as 1.2 mg. In addition, the isolated yield under setting [1] is listed as 0.7%.
On to “DO3A10CM-Dna12-Arg-Trp-Ser-His-Darg-Trp-Bpa4-Pro-Pheol”, for which the isolated mass was determined as 25.4 mg. The substance further showed an isolated yield under setting [1] of 5.1%.
Take “DO3A10CM-Dna12-Arg-Trp-Ser-His-Darg-Trp-Bpa4-Pro-Ap”: the isolated mass is 5.6 mg. Further, the isolated yield under setting [1] came to 1.2%.
Taken in the same sequence, the figures for “DO3A10CM-Dna12-Arg-Trp-Ser-His-Darg-Trp-Bpa4-Pro-Gly-Abt1h4” were 11.3 mg and 7%.
In the case of “DO3A10CM-Dna12-Arg-Trp-Ser-His-Darg-Trp-Bpa4-OH”, the isolated mass is 119 mg. This substance also came in with an isolated yield under setting [1] of 27%.
For “DO3A10CM-Dna12-Arg-Trp-Ser-His-Darg-Trp-Bpa4-Pro-Da15o3pt” the same measures were 16.4 mg and 3.4%.
“DO3A10CM-Dna12-Arg-Trp-Ser-His-Darg-Trp-Bpa4-Pro-Ae” gave an isolated mass of 56.0 mg. The same substance came in with an isolated yield under setting [1] of 36.6%.
Consider “DO3A10CM-Dna12-Arg-Trp-Ser-His-Darg-Trp-Bpa4-Pro-Gly-Aprp1h3”, for which the isolated mass turned out to be 30.0 mg. In addition, the isolated yield under setting [1] is recorded as 18.6%.
Consider “DO3A10CM-Sar-Arg-Trp-Ser-His-Darg-Trp-Bpa4-Pro-Az23po-Dabt14”, for which the isolated mass was 20.5 mg. Moreover, the isolated yield under setting [1] is 4.4%.
“DO3A100CM-Dna12-Arg-Trp-Ser-His-Darg-Trp-Bpa4-Pro-Gly-Abt1h4” had an isolated mass of 18.0 mg. In addition, the isolated yield under setting [1] was 11.5%.
In the case of “DO3A10CM-Dna12-Arg-Trp-Ser-His-Darg-Trp-Bpa4-Pro-Gly-NH2”, the isolated mass stood at 12.7 mg. The isolated yield under setting [1] amounted to 2.7%.
“DO3A10CM-Dna12-Arg-Trp-Ser-His-Darg-Trp-Bpa4-Pro-Gly-Gln-NH2” displayed an isolated mass of 29.0 mg. Under setting [1], this substance yielded an isolated yield of 5.7%.
Substance “DO3A10CM-Dna12-Arg-Trp-Ser-His-Darg-Trp-Bpa4-Pro-Gly-Phe-NH2” came in with an isolated mass of 15.5 mg. Moreover, the isolated yield under setting [1] is given as 3%.
The substance “DO3A10CM-Sar-Arg-Trp-Ser-His-Darg-Trp-Bpa4-Pro-Az23po-Da15o3pt” showed an isolated mass of 31.0 mg. The substance further displayed an isolated yield under setting [1] of 6.6%.
For the substance “DO3A10CM-Dna12-Arg-Trp-Ser-His-Darg-Trp-Bpa-Pro-Gly-Abn”, the isolated mass is recorded as 18.2 mg. Under setting [1], this substance returned an isolated yield of 11%.
For “DO3A1-CM-Dna12-Arg-Trp-Ser-His-Darg-Trp-Bpa4-Pro-Ach2” the same measures were 22.0 mg and 4.6%.
Substance “DO3A10CM-Dna12-Arg-Trp-Ser-His-Darg-Trp-Bpa4-Pro-Gua” showed an isolated mass of 16.0 mg. Under setting [1], this substance returned an isolated yield of 10.4%.
In turn, “Sar-Arg-Trp-Ser-His-Darg-Trp-Bpa4-Pro-Da15o3pt” came in with an isolated mass of 59.0 mg. In addition, the isolated yield under setting [1] stood at 16.4%.
Substance “DO3A10CM-Dna12-Arg-Trp-Ser-His-Darg-Trp-Bpa4-Pro-A1guao3pt” showed an isolated mass of 15.5 mg. Under setting [1], this substance had an isolated yield of 9.6%.
In the case of “DO3A10CM-Dna12-Arg-Trp-Ser-His-Darg-Trp-OH”, the isolated mass amounted to 53.5 mg. The substance also registered an isolated yield under setting [1] of 14.2%.
Substance “DO3A10CM-Dna12-Arg-Trp-Ser-His-Darg-Trp-Bpa4-Pro-Aprp1h3” came in with an isolated mass of 12.3 mg. This substance also came in with an isolated yield under setting [1] of 7.9%.
